From PMC12620050 come the findings set out here.

The chains behind the UniProt entries cited, without tags or fusion partners.
UniProt Q9Z1E3: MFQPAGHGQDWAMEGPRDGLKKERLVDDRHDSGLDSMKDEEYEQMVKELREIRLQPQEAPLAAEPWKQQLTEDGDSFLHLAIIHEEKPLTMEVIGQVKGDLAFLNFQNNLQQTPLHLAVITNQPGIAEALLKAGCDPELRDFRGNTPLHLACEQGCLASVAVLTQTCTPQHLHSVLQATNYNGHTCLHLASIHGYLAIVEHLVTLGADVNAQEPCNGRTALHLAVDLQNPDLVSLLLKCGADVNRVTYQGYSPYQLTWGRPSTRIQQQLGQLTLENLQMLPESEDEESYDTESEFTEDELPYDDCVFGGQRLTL

No constants are given. Whether binding was seen depends on the method and setting. Binding seen in cells or lysates may run through a third protein. Some results given as binding are weak or reduced against the parent protein; the word gives no strength.

This assay has as its target T1, tripartite motif-containing protein 14 (TRIM14) (mouse (endogenous in BV2)) (UniProt Q8BVW3).
T1 sequence: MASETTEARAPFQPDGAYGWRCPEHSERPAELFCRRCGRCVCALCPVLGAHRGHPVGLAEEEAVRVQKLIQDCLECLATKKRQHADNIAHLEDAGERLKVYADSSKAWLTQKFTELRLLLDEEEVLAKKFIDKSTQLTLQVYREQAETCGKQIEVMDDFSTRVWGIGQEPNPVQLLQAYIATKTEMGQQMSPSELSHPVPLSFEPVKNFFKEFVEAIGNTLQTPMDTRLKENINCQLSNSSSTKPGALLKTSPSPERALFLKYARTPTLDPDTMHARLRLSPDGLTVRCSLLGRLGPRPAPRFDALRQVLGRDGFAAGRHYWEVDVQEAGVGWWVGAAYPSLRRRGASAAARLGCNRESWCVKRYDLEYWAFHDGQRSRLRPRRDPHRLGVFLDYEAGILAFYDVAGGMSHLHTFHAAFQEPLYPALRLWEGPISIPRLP
The assay is described as follows: co-IP; BV2 cell lysate (500 ug total protein) precleared with Protein A/G agarose; IP with 1 ug anti-TRIM14 or anti-IκBα, normal rabbit IgG as negative control, 4°C; washes with lysis buffer containing 150 mM NaCl and 0.1% NP-40; western blot; also done after TRIM14 knockdown (siTRIM14).

IκBα (from UniProt Q9Z1E3 1-314): the binding entry is recorded as “binds”.
